From the supplement of paper PMC10849652
The other results are listed elsewhere or left out.

The chains behind the UniProt entries cited, without tags or fusion partners. Where a name states a change or a piece, a line headed by the entry shows the natural chain unless it says otherwise.
UniProt Q01459: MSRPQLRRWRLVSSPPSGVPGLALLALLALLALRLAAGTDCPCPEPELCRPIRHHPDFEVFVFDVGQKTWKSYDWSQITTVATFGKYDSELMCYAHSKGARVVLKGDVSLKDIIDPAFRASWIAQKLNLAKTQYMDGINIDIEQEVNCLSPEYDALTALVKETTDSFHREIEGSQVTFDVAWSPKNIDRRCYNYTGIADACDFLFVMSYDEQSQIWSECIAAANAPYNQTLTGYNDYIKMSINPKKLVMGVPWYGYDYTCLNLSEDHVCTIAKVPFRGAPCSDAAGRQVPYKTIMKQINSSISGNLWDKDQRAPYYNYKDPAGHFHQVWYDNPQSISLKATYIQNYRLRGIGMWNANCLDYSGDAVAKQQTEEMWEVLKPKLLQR
UniProt P35222, whole entry, looked up: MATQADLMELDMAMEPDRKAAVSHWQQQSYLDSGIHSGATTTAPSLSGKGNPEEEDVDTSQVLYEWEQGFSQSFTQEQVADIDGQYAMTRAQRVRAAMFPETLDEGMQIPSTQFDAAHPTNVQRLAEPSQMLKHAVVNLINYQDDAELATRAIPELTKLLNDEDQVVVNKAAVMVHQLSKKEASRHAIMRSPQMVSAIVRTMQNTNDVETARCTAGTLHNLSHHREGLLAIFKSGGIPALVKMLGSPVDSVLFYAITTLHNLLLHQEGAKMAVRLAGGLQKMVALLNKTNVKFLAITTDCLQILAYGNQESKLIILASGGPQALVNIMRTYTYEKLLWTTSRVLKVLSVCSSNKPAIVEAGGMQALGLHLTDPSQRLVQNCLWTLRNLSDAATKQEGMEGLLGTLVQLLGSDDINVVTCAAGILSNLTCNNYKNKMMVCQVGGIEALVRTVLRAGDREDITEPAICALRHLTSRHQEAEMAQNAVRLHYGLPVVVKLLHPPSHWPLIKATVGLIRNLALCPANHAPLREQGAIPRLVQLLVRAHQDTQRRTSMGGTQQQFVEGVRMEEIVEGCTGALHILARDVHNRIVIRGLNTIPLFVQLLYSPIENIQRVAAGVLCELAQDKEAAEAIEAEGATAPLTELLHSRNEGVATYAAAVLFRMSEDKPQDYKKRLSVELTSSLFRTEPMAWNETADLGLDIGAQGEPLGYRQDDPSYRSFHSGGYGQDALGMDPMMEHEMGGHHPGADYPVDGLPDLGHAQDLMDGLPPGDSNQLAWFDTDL
UniProt Q15828: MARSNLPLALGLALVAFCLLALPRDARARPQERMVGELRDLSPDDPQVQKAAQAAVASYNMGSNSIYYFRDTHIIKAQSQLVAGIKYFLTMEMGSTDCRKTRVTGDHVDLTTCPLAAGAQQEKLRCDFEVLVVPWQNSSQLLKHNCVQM
UniProt Q9UER7, whole entry, looked up: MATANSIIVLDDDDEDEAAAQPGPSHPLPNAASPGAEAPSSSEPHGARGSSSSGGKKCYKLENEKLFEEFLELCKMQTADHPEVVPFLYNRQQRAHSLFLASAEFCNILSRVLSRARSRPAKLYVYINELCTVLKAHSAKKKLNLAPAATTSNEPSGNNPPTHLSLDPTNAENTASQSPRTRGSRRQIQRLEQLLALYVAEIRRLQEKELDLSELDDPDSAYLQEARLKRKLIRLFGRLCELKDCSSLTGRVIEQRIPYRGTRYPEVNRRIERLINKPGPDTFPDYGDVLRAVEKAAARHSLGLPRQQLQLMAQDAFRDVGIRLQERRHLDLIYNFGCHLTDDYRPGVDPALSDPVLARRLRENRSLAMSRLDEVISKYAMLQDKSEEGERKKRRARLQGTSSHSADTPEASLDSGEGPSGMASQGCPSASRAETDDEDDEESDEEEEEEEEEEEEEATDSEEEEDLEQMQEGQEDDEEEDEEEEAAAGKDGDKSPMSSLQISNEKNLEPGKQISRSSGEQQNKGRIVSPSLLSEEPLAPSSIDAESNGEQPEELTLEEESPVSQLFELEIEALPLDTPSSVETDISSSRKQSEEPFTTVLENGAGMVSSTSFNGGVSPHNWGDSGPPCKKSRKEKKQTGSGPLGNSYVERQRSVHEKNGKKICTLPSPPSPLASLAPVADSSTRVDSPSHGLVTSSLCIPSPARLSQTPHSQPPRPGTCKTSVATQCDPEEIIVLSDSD
UniProt Q8NA75: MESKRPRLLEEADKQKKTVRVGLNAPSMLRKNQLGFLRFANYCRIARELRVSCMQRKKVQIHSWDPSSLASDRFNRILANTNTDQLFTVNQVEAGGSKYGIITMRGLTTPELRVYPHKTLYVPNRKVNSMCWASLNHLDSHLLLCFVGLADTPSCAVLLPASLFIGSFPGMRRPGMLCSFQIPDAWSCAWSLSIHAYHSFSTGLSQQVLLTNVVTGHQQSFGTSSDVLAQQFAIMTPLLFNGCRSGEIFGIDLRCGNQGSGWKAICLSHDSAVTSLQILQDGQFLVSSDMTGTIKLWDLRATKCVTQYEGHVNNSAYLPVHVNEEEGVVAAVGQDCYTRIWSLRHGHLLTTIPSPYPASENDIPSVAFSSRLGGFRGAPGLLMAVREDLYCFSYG
UniProt Q9H1C7: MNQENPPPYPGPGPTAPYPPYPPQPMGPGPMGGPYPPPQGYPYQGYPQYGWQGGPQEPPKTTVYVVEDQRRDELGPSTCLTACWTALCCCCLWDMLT
UniProt Q2TBE0: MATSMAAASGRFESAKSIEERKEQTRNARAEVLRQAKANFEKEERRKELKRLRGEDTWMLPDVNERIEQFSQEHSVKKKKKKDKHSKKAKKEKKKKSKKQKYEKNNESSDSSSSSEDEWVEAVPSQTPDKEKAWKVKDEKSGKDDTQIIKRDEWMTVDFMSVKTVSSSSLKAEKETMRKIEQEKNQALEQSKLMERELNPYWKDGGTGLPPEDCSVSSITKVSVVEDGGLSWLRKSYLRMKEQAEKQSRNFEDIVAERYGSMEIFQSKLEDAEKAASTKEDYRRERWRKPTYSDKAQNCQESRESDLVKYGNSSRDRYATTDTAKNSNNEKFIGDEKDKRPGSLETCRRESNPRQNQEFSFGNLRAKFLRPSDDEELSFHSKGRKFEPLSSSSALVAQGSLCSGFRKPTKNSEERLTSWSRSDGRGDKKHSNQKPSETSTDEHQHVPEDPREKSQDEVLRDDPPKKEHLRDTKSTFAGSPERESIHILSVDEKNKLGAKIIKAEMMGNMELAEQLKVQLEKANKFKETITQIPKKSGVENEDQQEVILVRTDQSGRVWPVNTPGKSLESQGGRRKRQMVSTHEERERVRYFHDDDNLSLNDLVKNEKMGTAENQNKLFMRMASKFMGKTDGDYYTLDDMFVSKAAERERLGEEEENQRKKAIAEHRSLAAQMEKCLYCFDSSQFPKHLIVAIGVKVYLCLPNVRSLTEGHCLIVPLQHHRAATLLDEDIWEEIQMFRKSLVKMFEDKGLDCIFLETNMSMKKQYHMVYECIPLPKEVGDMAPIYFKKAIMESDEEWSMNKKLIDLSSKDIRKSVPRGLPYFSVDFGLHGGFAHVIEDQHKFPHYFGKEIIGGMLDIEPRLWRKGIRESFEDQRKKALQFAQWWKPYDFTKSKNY
UniProt O60888: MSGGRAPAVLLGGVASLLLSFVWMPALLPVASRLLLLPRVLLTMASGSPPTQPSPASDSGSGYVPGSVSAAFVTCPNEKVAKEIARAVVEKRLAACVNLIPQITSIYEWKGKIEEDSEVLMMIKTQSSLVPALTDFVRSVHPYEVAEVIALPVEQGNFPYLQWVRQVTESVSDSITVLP
UniProt Q9NXF7, whole entry, looked up: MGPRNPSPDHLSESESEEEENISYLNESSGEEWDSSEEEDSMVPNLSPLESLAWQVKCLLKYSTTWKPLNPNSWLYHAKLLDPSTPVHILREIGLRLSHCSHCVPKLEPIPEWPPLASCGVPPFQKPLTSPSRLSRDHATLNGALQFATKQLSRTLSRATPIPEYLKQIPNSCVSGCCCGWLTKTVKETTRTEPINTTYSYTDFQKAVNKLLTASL
UniProt Q96GG9: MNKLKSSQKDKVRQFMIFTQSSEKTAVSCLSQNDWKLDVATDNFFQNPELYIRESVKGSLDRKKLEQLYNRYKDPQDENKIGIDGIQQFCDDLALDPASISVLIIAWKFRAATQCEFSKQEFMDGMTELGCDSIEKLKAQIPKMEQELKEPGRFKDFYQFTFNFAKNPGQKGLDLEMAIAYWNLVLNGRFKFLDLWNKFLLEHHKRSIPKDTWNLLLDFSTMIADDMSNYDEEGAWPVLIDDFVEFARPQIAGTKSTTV
UniProt P10619: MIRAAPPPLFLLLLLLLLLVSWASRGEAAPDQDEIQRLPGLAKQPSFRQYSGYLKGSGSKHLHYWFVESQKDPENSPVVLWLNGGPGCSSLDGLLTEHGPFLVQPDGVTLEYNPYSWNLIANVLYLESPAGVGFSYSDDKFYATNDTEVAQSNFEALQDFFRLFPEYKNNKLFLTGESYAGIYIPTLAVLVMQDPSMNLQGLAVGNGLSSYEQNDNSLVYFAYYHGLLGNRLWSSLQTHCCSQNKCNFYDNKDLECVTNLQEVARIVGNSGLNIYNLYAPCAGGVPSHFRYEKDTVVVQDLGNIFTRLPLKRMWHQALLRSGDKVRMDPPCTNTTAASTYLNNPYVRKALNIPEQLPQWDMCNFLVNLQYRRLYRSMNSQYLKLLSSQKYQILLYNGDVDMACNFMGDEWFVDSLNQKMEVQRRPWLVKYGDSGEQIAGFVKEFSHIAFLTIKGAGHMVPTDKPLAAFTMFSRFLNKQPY
UniProt P33240: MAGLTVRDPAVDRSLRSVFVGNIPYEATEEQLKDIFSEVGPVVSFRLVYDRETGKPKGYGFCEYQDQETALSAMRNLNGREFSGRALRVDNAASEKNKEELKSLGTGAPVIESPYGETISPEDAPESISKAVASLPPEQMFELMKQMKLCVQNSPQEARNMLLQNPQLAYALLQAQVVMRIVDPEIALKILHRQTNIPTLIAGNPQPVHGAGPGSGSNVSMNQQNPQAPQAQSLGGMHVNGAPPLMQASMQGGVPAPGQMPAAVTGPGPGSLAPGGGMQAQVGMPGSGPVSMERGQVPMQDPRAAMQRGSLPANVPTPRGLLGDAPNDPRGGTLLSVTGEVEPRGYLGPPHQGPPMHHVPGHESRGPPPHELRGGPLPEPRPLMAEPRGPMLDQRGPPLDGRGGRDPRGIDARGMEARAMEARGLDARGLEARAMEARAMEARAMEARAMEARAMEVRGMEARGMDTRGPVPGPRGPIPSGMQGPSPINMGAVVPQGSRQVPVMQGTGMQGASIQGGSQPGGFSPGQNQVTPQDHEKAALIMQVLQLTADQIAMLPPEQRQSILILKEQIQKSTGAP
UniProt Q14118: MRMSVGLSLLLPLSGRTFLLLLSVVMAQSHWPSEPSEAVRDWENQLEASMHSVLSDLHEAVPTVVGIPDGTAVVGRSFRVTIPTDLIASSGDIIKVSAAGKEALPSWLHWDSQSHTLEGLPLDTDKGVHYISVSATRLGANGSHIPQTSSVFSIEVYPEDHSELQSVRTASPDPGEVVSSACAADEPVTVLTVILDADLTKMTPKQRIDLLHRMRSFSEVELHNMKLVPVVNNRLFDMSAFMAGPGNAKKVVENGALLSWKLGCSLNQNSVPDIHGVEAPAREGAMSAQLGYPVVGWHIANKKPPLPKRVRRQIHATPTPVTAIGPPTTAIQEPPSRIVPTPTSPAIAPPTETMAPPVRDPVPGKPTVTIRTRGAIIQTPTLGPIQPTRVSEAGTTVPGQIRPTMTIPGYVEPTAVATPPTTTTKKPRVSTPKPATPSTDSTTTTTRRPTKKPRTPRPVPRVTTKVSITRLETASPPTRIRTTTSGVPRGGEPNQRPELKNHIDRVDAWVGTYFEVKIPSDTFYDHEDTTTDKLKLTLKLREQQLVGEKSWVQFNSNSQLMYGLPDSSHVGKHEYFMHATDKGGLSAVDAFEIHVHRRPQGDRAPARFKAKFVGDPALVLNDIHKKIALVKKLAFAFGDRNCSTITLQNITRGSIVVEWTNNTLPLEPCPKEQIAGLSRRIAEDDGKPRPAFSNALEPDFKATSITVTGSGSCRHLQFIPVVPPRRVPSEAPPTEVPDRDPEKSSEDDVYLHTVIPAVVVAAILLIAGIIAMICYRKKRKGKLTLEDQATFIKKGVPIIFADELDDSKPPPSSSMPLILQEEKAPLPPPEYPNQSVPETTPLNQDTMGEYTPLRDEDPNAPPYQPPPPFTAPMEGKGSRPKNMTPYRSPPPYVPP
UniProt O60911: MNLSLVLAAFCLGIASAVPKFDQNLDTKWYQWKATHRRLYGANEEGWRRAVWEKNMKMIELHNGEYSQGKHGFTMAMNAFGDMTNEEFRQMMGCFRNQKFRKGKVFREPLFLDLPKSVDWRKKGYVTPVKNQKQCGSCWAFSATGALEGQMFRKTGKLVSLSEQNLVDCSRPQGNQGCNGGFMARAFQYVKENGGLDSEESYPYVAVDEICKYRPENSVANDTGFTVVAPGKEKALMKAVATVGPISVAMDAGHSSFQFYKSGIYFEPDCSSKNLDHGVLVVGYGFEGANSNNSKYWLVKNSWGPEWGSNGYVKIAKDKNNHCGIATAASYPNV

Assays:
Assay in all cases: log2 fold change, soluble protein after heating vs DMSO (PISA); higher = thermal stabilisation; K562 cells, 10 uM, 30 min; active = over 0.2 and 3.5 SD of the protein, either way, in both replicates (recomputed)
[1] = compound: CC[C@@H]1C(=O)N(C)c2cnc(Nc3ccc(C(=O)NC4CCN(C)CC4)cc3OC)nc2N1C1CCCC1
How it was run: (§1)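 K562 cells at 2×10^6 cells/mL were exposed to 10 μM compound for 30 min, then aliquots were heated for 3 min across 48°C-58°C, pooled, and extracted in PBS containing 0.5% NP-40 at 4°C. The supernatant after 21,000xg for 90 min was taken as soluble protein and measured by TMTpro 16plex LC-MS/MS with channel sums equalised. Thermal stability is reported relative to control samples, with values from duplicates. Fold changes are given on a log2 scale.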

[2] = compound: CC[C@@H]1C(=O)N(C)c2cnc(Nc3ccc(C(=O)N[C@H]4CC[C@H](N5CCN(CC6CC6)CC5)CC4)cc3OC)nc2N1C(C)C [volasertib]
How it was run: as §1

[3] = compound: CC[C@H](C)N1C=C(C2=C(C=C(C=C21)C3=CN=C(C=C3)N4CCNCC4)C(=O)NCC5=C(C=C(NC5=O)C)C)C
How it was run: as §1

[4] = compound: CC[C@H](C)[C@@H](C(=O)N[C@@H]([C@@H](C)O)C(=O)N[C@@H](CC(C)C)C(=O)[C@]1(CO1)C)NC(=O)[C@H]([C@@H](C)CC)N(C)C(=O)C [epoxomicin]
How it was run: as §1

[5] = compound: CCn1cc(-c2ccnc3[nH]c(-c4cccc(CN(C)C)c4)cc23)c(-c2ccc(NC(=O)N(C)C)cc2)n1
How it was run: as §1

[6] = compound: CN(C)CC(=O)Nc1ccc2[nH]c(=O)c3ccccc3c2c1
How it was run: as §1

[7] = compound: CN1C2=C(C3=C1C(=O)N(N=C3)CC4=CC(=CC=C4)N)SC(=C2)S(=O)C
How it was run: as §1

[8] = compound: CN1CCC(CNc2ccc3ncc(-c4cccc(OC(F)(F)F)c4)n3n2)CC1
How it was run: as §1

[9] = compound: CCn1c(C(=O)N(C2CC2)C2CC2)cc2c3c(ncn3C)c(Nc3cc(C)n(C)n3)nc21
How it was run: as §1

[10] = compound: CN(CCOC1=CC=C(C=C1)C[C@H]2C(=O)NC(=O)S2)C3=CC=CC=N3 (racemic) [rosiglitazone]
How it was run: as §1

Measured: log2 fold change

CTBS (UniProt Q01459)
inactive: [3] -0.074 | [4] 0.033 | [5] 0.069 | [6] 0.013 | [7] 0.045
active: [1] -0.494 | [2] -0.376 | [8] -0.44

CTNNB1 (UniProt P35222)
inactive: [1] 0.2 | [2] -0.162 | [3] -0.116 | [5] -0.304 | [6] -0.151 | [7] -0.185 | [8] 0.379
active: [4] 0.887

CST6 (UniProt Q15828)
inactive: [1] 0.729 | [3] 0.411 | [4] 0.533

DAXX (UniProt Q9UER7)
inactive: [1] 0.018 | [2] -0.006 | [3] 0.204 | [5] -0.102 | [6] -0.077 | [7] -0.093 | [8] 0.027

DCAF4L2 (UniProt Q8NA75)
inactive: [1] 0.233 | [2] -0.001 | [3] -0.129 | [9] 0.017 | [5] -0.018 | [6] 0.007 | [10] -0.008 | [7] 0.03 | [8] 0.008

CYSTM1 (UniProt Q9H1C7)
inactive: [1] -0.128 | [2] 0.434 | [3] 0.015 | [9] 0.118 | [6] 0.01 | [10] 0.012 | [7] 0.17

CWF19L2 (UniProt Q2TBE0)
inactive: [1] -0.051 | [2] -0.107 | [5] 0.094 | [7] 0.231 | [8] 0.21

CUTA isoform 2 (UniProt O60888)
inactive: [1] 0.063 | [2] -0.057 | [3] -0.033 | [4] 0.125 | [5] -0.109 | [6] 0.175 | [7] 0.164 | [8] -0.027

DCAF16 (UniProt Q9NXF7)
active: [2] -0.532
inactive: [1] -0.164 | [3] 0.06 | [4] 0.032 | [5] -0.205 | [6] 0.073 | [7] -0.052 | [8] 0.03

DCUN1D1 (UniProt Q96GG9)
active: [2] -0.276
inactive: [1] -0.1 | [3] 0.018 | [4] 0.048 | [5] -0.061 | [6] 0.03 | [7] -0.056 | [8] -0.178

CTSA (UniProt P10619)
active: [1] -1.24 | [2] -1.57 | [8] -1.44
inactive: [3] -0.037 | [4] -0.003 | [5] 0.018 | [6] 0.011 | [7] -0.007

CSTF2 (UniProt P33240)
inactive: [1] 0.06 | [3] -0.024 | [4] -0.077 | [5] 0.041 | [6] -0.048 | [7] -0.085 | [8] -0.004
active: [2] 0.233

CYB561 (UniProt P49447)
inactive: [1] 0.157 | [2] -0.206 | [3] 0.129 | [9] 0.06 | [5] 0.01 | [6] 0.32 | [10] 0.071 | [7] -0.097 | [8] 0.118

Looked up one by one from the entries so far (2):
CSTF2 (UniProt P33240)
inactive: [1] 0.06 | [3] -0.024 | [4] -0.077 | [5] 0.041 | [6] -0.048 | [7] -0.085 | [8] -0.004
active: [2] 0.233

CTSA (UniProt P10619)
active: [1] -1.24 | [2] -1.57 | [8] -1.44
inactive: [3] -0.037 | [4] -0.003 | [5] 0.018 | [6] 0.011 | [7] -0.007

The list goes on.

CSPG5 (UniProt O95196)
inactive: [1] 0.049 | [2] 0.172 | [4] -0.234 | [9] -0.021

DAG1 (UniProt Q14118)
inactive: [1] 0.149 | [2] 0.048 | [3] -0.008 | [4] 0.023 | [5] -0.044 | [6] 0.012 | [7] -0.075
active: [8] 0.243

CTSV (UniProt O60911)
inactive: [3] -0.054 | [4] -0.007 | [5] 0.084 | [6] 0.012 | [7] -0.081
active: [1] -0.719 | [2] -0.993 | [8] -1.29
